Numbering of substitutions follows the chain as printed. These are yes or no findings as the source states them, for the method shown. For some of these results: In cells and extracts the contact can be indirect. Some results given as binding are weak or reduced against the parent protein; the word gives no strength. For some of these results: Sequences can lack the tags named with a protein.
B1: IAA3/SHY2 Cys187Ser (protein, UniProt Q38822 1-189)
chain: MDEFVNLKETELRLGLPGTDNVCEAKERVSCCNNNNKRVLSTDTEKEIESSSRKTETSPPRKAQIVGWPPVRSYRKNNIQSKKNESEHEGQGIYVKVSMDGAPYLRKIDLSCYKGYSELLKALEVMFKFSVGEYFERDGYKGSDFVPTYEDKDGDWMLIGDVPWEMFICTCKRLRIMKGSEAKGLGSGV
B2: HA-WT IAA3/SHY2 expressed in transgenic Arabidopsis thaliana (protein, UniProt Q38822 1-189)
chain: B1 chain with S187C
B3: HA-WT IAA3/SHY2 transiently expressed in Nicotiana benthamiana (protein, UniProt Q38822 1-189)
chain: B1 chain with S187C
B4: HA-4C/S IAA3/SHY2 transiently expressed in Nicotiana benthamiana (protein, UniProt Q38822 1-189)
chain: B1 chain with C32S, C112S, C169S
B5: MBP-tagged IAA3/SHY2 (wild type), recombinant (natural protein, Arabidopsis thaliana, UniProt Q38822 1-189, looked up)
chain: B1 chain with S187C

Columns and labels:
[1] = target: IAA3/SHY2 Cys187Ser (Arabidopsis thaliana) (UniProt Q38822); test: non-reducing SDS-PAGE
[2] = target: HA-WT IAA3/SHY2 expressed in transgenic Arabidopsis thaliana (Arabidopsis thaliana) (UniProt Q38822); test: anti-HA immunoprecipitation + non-reducing SDS-PAGE immunoblot
[3] = target: HA-WT IAA3/SHY2 transiently expressed in Nicotiana benthamiana (Arabidopsis thaliana) (UniProt Q38822); test: as above
[4] = target: T1, TIR1-GFP (UniProt Q570C0); test: co-IP
T1 sequence: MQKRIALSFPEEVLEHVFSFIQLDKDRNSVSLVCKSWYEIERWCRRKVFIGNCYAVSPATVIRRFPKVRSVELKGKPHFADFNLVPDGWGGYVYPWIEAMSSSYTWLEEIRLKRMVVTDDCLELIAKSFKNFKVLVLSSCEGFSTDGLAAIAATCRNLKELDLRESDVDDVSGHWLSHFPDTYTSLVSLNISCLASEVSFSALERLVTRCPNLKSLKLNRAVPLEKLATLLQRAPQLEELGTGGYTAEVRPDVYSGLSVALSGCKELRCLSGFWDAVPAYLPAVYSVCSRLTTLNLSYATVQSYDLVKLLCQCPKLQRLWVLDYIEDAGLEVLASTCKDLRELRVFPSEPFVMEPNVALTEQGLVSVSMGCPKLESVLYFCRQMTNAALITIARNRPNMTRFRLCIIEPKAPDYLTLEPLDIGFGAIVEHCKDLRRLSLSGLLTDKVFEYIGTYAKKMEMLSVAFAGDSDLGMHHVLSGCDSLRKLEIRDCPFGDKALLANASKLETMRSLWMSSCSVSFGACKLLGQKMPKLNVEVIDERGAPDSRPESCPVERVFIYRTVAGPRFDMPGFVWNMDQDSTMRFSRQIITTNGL

[5] = target: T2, TOPLESS (TPL) transcriptional co-repressor (UniProt Q94AI7); test: co-IP
T2 sequence: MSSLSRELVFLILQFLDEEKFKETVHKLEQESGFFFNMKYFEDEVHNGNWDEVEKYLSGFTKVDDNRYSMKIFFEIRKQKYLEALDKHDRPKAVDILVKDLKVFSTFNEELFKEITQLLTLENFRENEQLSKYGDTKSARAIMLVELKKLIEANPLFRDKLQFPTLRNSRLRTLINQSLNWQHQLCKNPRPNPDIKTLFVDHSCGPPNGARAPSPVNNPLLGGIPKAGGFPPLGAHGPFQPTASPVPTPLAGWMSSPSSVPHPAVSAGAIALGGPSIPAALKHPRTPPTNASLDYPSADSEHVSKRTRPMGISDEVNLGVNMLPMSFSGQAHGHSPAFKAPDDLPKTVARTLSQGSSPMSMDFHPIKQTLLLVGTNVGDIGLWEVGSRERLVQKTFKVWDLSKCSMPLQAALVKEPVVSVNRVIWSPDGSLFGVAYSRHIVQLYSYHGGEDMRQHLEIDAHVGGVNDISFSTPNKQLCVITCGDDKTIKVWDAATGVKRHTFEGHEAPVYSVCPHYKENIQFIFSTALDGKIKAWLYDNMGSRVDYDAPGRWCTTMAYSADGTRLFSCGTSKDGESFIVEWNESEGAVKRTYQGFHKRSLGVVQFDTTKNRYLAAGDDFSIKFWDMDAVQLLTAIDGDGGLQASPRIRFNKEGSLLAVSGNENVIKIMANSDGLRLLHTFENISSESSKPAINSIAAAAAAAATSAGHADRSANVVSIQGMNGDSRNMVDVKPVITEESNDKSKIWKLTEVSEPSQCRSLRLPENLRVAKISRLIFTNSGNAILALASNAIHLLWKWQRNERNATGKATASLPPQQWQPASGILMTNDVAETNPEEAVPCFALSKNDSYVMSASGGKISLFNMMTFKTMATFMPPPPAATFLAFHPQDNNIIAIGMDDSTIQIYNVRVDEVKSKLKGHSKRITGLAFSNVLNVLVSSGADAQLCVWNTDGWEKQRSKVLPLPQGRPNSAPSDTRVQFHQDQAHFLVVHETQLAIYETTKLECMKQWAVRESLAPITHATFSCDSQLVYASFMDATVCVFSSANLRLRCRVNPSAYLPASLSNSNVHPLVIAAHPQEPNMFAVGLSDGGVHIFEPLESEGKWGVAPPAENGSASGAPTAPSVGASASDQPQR

[6] = target: T3, ARF7-GFP (wild type) (UniProt P93022); test: co-IP
T3 sequence: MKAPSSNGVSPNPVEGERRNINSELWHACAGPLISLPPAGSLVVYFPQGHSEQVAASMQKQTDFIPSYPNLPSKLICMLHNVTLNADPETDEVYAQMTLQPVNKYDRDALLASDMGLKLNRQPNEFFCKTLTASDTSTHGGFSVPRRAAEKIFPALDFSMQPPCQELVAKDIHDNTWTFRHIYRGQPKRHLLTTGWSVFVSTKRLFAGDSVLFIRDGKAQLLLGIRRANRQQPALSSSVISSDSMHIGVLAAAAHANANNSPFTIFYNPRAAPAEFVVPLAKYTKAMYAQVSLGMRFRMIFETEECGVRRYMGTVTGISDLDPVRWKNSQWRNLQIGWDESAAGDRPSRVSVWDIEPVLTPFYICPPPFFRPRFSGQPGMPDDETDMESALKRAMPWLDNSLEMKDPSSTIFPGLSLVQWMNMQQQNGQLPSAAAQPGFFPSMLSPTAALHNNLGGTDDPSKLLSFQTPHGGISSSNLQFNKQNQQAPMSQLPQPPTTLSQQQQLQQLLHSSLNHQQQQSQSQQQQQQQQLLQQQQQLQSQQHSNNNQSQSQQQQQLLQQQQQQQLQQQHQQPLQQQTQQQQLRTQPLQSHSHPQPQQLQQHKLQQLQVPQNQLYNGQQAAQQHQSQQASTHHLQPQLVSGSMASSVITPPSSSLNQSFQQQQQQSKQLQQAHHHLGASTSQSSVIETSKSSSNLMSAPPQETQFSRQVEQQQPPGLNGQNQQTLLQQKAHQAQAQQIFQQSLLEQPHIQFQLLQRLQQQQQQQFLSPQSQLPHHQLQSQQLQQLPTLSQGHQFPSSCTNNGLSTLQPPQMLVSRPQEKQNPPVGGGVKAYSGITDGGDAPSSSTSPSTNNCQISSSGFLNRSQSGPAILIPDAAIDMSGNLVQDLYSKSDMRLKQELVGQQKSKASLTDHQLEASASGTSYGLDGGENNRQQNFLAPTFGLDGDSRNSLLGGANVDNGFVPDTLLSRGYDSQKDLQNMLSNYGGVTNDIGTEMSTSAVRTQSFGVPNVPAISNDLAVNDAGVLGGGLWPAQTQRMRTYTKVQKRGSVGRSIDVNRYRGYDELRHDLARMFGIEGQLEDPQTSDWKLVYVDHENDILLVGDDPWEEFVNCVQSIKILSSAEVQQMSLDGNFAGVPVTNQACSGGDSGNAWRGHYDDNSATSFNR

[7] = target: MBP-tagged IAA3/SHY2 (wild type), recombinant (Arabidopsis thaliana) (UniProt Q38822); test: non-reducing SDS-PAGE

Row | Binder | binding [4] | binding [5] | binding [6] | also measured
1 | B1 |  |  |  | binding [1]: binds
2 | B2 |  |  |  | binding [2]: binds
3 | B3 | binds | binds | binds | binding [3]: binds
4 | B4 | binds | binds | binds | 
5 | B5 |  |  |  | binding [7]: no binding (condition: with 7.5mM DTT)

— publication doi:10.1101/2024.02.12.579961 (bioRxiv, 2024)
